{"source": "PubChem BioAssay AID1259405 (NCATS, 2018)", "purpose": "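Silenced genes that increase secreted GFP made by CHO cells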 (primary screen)", "system": "Chinese hamster CHO-K1 ovary cells with stable secreted eGFP expression", "knock-down reagent": "single siRNA against mouse genes, 0.8 pmol siRNA per well (2 µl of 400 nM stock)", "duration": "3 days", "measured": "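Percent of the per-plate non-targeting control median for intracellular GFP per well by laser scanning cytometry and for cell viability by ATP luminescence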", "direction": "GFP, % of control: higher = more GFP per well, higher productivity; viability (ATP), % of control: higher = more viable cells (more ATP)", "rule for the call": "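Called active when intracellular GFP, relative to negative control, is at or above 120%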", "note": "Shown is an unselected part of about 50,000 reagents tested. In the full data, about 4,000 (8%) were called active. 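Mouse siRNA library applied to hamster cells; one well for each siRNA.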 Entries without a mark were called inactive. The numbers tell different reagents against one gene apart."}
{"Gene": "Mrpl13", "reagent": 1, "GFP, % of control": 40.1, "viability (ATP), % of control": 58}
{"Gene": "Mrpl13", "reagent": 2, "GFP, % of control": 111, "viability (ATP), % of control": 67.7}
{"Gene": "Mrpl13", "reagent": 3, "GFP, % of control": 75.9, "viability (ATP), % of control": 73.9}
{"Gene": "Mrgpra3", "reagent": 1, "GFP, % of control": 45.2, "viability (ATP), % of control": 51.6}
{"Gene": "Mrgpra3", "reagent": 2, "GFP, % of control": 90, "viability (ATP), % of control": 86.6}
{"Gene": "Mrgpra3", "reagent": 3, "GFP, % of control": 56.2, "viability (ATP), % of control": 41}
{"Gene": "Hba-a1", "reagent": 1, "GFP, % of control": 53, "viability (ATP), % of control": 41.4}
{"Gene": "Hba-a1", "reagent": 2, "GFP, % of control": 78, "viability (ATP), % of control": 64.8}
{"Gene": "Hba-a1", "reagent": 3, "GFP, % of control": 109, "viability (ATP), % of control": 81.4}
{"Gene": "Sntg1", "reagent": 1, "GFP, % of control": 59.2, "viability (ATP), % of control": 68.2}
{"Gene": "Sntg1", "reagent": 2, "GFP, % of control": 63.2, "viability (ATP), % of control": 66.1}
{"Gene": "Nudt16l1", "reagent": 1, "GFP, % of control": "124 (active)", "viability (ATP), % of control": 89.2}
{"Gene": "Nudt16l1", "reagent": 2, "GFP, % of control": 89.1, "viability (ATP), % of control": 42.6}
{"Gene": "Nudt16l1", "reagent": 3, "GFP, % of control": 53.8, "viability (ATP), % of control": 64}
{"Gene": "Or5g23", "reagent": 1, "GFP, % of control": 30.6, "viability (ATP), % of control": 42.8}
{"Gene": "Or5g23", "reagent": 2, "GFP, % of control": 94, "viability (ATP), % of control": 79.1}
{"Gene": "Or5g23", "reagent": 3, "GFP, % of control": "155 (active)", "viability (ATP), % of control": 124}

Active calls, among the entries above:
{"Gene": "Nudt16l1", "reagent": 1, "GFP, % of control": "124 (active)", "viability (ATP), % of control": 89.2}
{"Gene": "Or5g23", "reagent": 3, "GFP, % of control": "155 (active)", "viability (ATP), % of control": 124}
